Reference: US20200299251A1, “FURAN SKELETON-CONTAINING IMINOGUANIDINE DERIVATIVE AS WELL AS PREPARATION AND APPLICATION THEREOF” (SUN YAT-SEN UNIVERSITY, priority 2017, published 2020)

Test: Release-absorption cycle experiment on carbon dioxide (conversion rate by absorbance at 368 nm)

Structure (SMILES): N=C(N)N/N=C/c1ccc(/C=N/NC(=N)N)o1 [FuBIG]
- conversion rate (after absorption-release cycle for ten times): 92.49%
- conversion rate (first CO2 absorption, aqueous solution 0.4248M, stirred 1 h): 99.36%
